The text below walks through data of the supplement of paper PMC9262897, “Low-cost anti-mycobacterial drug discovery using engineered E. coli” (Nature Communications, 2022).

Structures are written as SMILES. Where a name gives a salt, the structure may show the parent alone. ± gives the standard deviation of the averaged measurements. This list holds what a sample rich in lowest values left over.

In one assay the test system is E. coli TESEC Mtb Alr. The assay is described as follows: growth (OD600 after 10 h); higher = more growth (less inhibition). The conditions noted are these: arabinose 100 nM; compound 0.1 mM; raw OD600 reference: median of DMSO wells 0.413, cell-free background 0.052. Here is the method: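 TESEC Mtb Alr E. coli (ΔaraC ΔtolC ΔentC Δalr ΔdadX, arabinose-inducible Mtb Alr) or the Alr+ wild-type control strain, grown in defined M9-fructose medium without D-alanine in 96-well plates with Prestwick library compounds at 0.1 mM and 1% DMSO. Low Alr induction is 0.1 µM arabinose and high induction is 10 mM arabinose.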
In turn, `CN1[C@@H]2CC[C@H]1C[C@@H](OC(=O)C(O)c1ccccc1)C2` (mixture of isomers) [Homatropine hydrobromide (R,S)] yielded a growth of 0.409 ± 0.011.

The same assay, now with this note: arabinose 10000000 nM; compound 0.1 mM; raw OD600 reference: median of DMSO wells […], cell-free background 0.052.
`CN1[C@@H]2CC[C@H]1C[C@@H](OC(=O)C(O)c1ccccc1)C2` (mixture of isomers) [Homatropine hydrobromide (R,S)] yielded a growth of 0.275 ± 0.1.
